Measurements taken from the supplement of paper PMC10849652.
Some of the results follow.

By UniProt entry, the sequences of proteins in these tests, tags left out. Where a name states a change or a piece, a line headed by the entry shows the natural chain unless it says otherwise.
UniProt Q9P2C4: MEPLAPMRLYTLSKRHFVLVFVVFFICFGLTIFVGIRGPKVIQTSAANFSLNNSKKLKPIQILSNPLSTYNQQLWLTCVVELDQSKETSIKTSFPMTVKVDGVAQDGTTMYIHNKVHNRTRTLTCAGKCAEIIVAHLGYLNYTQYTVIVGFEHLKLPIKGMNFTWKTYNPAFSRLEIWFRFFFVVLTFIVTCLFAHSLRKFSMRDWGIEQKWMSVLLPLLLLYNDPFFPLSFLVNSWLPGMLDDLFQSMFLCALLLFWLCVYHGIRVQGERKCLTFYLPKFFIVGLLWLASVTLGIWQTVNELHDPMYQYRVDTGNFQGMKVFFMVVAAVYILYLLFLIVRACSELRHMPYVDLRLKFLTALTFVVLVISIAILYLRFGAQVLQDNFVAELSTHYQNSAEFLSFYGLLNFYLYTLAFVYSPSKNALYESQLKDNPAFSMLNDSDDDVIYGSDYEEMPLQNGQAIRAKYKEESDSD
UniProt Q96AN5: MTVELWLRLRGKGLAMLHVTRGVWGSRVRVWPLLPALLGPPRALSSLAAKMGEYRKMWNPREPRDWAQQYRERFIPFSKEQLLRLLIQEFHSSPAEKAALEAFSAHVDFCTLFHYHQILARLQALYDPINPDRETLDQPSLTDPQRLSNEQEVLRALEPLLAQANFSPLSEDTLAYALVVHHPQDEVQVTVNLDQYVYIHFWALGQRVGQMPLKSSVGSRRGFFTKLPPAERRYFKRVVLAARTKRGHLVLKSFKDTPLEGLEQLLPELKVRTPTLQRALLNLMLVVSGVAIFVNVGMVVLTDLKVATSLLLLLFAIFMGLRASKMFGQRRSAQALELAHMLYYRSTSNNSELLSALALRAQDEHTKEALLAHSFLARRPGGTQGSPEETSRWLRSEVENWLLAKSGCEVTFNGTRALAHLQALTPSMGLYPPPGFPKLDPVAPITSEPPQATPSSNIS
UniProt Q5SWH9: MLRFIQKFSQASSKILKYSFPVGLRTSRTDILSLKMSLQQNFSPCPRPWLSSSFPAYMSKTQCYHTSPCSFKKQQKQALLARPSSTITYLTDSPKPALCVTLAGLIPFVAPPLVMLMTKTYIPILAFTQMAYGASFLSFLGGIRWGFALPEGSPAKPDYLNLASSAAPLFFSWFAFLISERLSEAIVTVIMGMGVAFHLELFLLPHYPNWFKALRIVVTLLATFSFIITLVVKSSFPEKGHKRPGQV
UniProt P21580: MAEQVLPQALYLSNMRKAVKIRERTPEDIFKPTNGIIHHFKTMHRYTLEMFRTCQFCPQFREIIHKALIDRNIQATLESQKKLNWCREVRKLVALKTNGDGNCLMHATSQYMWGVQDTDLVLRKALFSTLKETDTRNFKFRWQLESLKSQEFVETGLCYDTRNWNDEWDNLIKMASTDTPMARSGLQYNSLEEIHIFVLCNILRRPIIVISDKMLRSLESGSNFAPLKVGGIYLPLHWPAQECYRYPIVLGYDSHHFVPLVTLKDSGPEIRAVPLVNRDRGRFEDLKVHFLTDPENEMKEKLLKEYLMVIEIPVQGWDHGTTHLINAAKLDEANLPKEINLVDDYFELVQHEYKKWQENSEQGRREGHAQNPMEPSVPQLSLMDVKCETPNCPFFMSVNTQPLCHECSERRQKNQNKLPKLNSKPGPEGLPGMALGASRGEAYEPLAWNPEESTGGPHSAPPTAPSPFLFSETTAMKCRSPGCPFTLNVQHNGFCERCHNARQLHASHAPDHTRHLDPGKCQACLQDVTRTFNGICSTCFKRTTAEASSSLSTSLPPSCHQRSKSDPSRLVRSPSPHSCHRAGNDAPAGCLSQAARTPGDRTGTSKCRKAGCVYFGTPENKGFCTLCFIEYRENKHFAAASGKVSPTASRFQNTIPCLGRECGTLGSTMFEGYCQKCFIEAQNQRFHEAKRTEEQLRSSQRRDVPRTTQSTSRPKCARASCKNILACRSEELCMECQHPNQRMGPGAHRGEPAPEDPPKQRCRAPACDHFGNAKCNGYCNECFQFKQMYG
UniProt Q7Z403: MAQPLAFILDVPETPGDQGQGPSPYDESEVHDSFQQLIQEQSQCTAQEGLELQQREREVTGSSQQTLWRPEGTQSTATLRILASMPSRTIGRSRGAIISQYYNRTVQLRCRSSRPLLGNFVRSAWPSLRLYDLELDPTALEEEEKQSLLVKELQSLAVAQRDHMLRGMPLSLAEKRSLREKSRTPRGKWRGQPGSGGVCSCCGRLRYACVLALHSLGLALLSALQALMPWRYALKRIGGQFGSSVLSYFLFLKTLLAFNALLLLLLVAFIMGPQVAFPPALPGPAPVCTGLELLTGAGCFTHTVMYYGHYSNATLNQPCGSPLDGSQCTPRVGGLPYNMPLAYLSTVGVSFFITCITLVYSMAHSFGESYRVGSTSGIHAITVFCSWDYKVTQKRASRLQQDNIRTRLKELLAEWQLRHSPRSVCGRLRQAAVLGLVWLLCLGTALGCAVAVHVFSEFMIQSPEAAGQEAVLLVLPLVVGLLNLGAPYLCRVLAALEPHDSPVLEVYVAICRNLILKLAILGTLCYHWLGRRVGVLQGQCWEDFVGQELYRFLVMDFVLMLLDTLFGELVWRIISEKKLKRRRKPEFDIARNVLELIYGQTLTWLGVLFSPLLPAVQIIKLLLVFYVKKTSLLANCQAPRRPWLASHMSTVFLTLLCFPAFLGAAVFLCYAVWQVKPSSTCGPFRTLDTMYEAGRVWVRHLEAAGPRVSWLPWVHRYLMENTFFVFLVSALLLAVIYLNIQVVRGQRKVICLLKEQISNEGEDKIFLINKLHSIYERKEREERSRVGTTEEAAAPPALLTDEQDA
UniProt Q0VDI3: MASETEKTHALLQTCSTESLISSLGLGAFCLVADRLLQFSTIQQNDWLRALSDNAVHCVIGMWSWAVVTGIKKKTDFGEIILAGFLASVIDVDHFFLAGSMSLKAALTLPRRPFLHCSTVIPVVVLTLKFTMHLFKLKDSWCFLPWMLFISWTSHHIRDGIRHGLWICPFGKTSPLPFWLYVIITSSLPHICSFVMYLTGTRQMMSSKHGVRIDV
UniProt Q96HV5: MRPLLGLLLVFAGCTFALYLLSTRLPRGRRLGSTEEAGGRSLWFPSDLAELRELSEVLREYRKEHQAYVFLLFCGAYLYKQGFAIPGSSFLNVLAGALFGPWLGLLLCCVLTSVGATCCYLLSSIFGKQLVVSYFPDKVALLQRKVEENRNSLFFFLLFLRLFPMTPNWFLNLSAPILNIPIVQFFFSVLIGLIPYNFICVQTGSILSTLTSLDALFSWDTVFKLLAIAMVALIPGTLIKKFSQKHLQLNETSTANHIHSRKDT
UniProt Q7Z7H5: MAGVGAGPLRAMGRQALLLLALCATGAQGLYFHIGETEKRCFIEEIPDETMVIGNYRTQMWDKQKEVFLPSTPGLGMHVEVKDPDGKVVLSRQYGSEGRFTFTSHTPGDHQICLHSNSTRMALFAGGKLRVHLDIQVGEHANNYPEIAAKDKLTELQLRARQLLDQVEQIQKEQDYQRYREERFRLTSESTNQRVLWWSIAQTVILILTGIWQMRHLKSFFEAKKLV
UniProt P62328: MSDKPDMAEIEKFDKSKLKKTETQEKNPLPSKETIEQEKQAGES
UniProt Q5BJH2: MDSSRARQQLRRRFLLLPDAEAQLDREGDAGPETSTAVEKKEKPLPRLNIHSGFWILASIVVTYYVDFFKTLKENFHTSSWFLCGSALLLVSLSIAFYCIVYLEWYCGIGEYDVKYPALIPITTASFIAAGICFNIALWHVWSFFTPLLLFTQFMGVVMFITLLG
UniProt O95807: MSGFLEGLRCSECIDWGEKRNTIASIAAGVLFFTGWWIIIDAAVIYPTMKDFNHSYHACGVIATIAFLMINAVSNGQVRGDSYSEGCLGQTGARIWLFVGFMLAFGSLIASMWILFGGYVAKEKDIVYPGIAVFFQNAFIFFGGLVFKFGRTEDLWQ
UniProt Q9Y320, whole entry, looked up: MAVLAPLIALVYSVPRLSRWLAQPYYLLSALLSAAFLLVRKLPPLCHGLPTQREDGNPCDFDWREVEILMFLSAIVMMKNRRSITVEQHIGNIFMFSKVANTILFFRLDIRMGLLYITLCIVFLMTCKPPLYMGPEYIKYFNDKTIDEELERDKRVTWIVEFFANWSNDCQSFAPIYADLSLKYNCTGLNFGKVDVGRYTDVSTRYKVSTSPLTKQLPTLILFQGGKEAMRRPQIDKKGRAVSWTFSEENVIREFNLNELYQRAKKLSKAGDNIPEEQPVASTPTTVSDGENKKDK
UniProt Q8IUX1: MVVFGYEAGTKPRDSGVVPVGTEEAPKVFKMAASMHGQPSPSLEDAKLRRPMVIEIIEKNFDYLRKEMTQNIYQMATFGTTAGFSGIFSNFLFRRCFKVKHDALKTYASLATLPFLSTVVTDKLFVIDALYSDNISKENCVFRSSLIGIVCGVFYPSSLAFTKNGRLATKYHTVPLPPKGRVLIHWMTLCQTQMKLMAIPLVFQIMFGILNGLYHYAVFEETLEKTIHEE
UniProt A0PJW6: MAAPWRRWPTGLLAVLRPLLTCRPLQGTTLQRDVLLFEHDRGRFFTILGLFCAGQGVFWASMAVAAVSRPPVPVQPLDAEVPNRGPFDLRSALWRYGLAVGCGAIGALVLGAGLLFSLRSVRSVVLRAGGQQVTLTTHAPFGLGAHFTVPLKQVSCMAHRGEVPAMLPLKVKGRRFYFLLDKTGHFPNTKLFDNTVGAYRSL
UniProt Q9Y3A6: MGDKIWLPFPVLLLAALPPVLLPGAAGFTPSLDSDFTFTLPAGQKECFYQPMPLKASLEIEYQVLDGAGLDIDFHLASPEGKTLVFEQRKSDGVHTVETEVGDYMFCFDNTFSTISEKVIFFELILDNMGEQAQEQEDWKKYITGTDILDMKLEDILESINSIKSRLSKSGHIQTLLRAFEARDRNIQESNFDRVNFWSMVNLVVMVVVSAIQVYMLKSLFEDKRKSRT
UniProt Q15363: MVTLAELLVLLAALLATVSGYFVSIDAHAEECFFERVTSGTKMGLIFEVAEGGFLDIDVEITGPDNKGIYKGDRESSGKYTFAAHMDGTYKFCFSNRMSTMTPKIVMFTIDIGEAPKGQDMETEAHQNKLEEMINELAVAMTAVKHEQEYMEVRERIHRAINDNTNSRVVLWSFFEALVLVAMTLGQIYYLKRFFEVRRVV
UniProt Q96IK0: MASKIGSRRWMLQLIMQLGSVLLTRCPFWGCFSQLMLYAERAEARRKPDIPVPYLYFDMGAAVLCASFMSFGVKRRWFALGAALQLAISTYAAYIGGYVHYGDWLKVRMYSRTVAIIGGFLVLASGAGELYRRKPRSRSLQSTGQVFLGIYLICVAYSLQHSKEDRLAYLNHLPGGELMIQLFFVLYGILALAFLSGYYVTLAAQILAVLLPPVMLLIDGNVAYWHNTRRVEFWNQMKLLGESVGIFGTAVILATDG
UniProt Q9H1E5: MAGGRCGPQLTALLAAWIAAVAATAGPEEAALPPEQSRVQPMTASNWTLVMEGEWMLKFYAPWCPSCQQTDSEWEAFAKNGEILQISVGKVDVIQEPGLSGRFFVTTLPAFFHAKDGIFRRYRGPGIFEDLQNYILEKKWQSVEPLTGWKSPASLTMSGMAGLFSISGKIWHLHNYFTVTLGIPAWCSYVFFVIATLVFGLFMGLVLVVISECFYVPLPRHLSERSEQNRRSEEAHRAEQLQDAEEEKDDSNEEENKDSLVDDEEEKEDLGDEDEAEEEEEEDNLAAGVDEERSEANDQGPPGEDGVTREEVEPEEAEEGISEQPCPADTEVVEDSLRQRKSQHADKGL
UniProt Q13829: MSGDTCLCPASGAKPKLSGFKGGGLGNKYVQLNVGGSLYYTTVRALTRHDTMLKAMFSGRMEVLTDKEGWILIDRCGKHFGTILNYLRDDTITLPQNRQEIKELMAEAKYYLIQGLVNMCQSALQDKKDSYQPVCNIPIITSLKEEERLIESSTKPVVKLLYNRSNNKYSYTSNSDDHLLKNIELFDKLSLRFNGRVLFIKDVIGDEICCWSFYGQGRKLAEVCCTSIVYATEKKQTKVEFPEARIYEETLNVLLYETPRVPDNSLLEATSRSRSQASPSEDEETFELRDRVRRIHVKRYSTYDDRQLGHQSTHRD
UniProt Q9BRN9: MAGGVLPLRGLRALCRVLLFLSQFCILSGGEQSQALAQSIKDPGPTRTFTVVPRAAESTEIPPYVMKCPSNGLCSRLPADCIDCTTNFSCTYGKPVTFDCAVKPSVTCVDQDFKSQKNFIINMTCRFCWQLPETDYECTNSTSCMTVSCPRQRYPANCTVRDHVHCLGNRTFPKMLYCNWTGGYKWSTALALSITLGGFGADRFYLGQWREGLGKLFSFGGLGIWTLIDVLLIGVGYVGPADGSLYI
UniProt P49755: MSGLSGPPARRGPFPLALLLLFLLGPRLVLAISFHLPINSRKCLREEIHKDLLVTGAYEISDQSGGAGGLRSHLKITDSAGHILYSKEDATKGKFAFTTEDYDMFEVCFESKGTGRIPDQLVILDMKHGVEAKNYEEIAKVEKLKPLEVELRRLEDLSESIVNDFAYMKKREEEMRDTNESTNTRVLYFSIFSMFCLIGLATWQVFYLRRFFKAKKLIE

Key:
Assay in all cases: log2 fold change, soluble protein after heating vs DMSO (PISA); higher = thermal stabilisation; K562 cells, 10 uM, 30 min; active = over 0.2 and 3.5 SD of the protein, either way, in both replicates (recomputed)
[1] = compound: COC1=CC=C(C=C1)CN2C=CC3=C2C=C(C=C3)C(=O)NO
In short: (§1)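 Quantification of soluble protein used TMTpro 16plex LC-MS/MS, with channel sums equalised. Samples were the supernatant after 21,000xg for 90 min of pooled aliquots from K562 cells (2×10^6 cells/mL) treated with 10 μM compound for 30 min, heated for 3 min over 48°C-58°C, and extracted in PBS with 0.5% NP-40 at 4°C. Values, from duplicates, describe thermal stability against control samples on a log2 fold-change scale.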

[2] = compound: CO[C@H]1C[C@@H]2CC[C@@H](C)[C@@](O)(O2)C(=O)C(=O)N2CCCC[C@H]2C(=O)O[C@H]([C@H](C)C[C@@H]2CC[C@H](n3cnnn3)[C@H](OC)C2)CC(=O)[C@H](C)/C=C(\C)[C@@H](O)[C@@H](OC)C(=O)[C@H](C)C[C@H](C)/C=C/C=C/C=C/1C [zotarolimus]
In short: as §1

[3] = compound: COc1cc(C(=O)O)ccc1NC(=O)[C@@H]1N[C@@H](CC(C)(C)C)[C@](C#N)(c2ccc(Cl)cc2F)[C@H]1c1cccc(Cl)c1F [idasanutlin]
In short: as §1

[4] = compound: COc1cc(Nc2ncc3c(n2)-c2ccc(Cl)cc2C(c2c(F)cccc2OC)=NC3)ccc1C(=O)O [alisertib]
In short: as §1

[5] = compound: COc1cc2nc(-c3cc(F)ccc3O)nc(N[C@@H]3CNC[C@H]3C(C)(C)O)c2cc1OC
In short: as §1

[6] = compound: COc1cccc2cc(-c3nc([C@H]4CC[C@H](C(=O)O)CC4)n4ncnc(N)c34)[nH]c12
In short: as §1

[7] = compound: CS(=O)(=O)CCNCc1ccc(-c2ccc3ncnc(Nc4ccc(OCc5cccc(F)c5)c(Cl)c4)c3c2)o1 [lapatinib]
In short: as §1

[8] = compound: CS(=O)(=O)N1CCN(Cc2cc3nc(-c4cccc5[nH]ncc45)nc(N4CCOCC4)c3s2)CC1 [pictilisib]
In short: as §1

[9] = compound: CON(C)C(=O)N1N=C(c2cc(F)ccc2F)S[C@@]1(CCCN)c1ccccc1 [filanesib]
In short: as §1

[10] = compound: COc1cc2ncnc(Nc3ccc(F)c(Cl)c3)c2cc1OCCCN1CCOCC1 [gefitinib]
In short: as §1

Target	log2 fold change [1]	log2 fold change [2]	log2 fold change [3]	log2 fold change [4]	log2 fold change [5]	log2 fold change [6]	log2 fold change [7]	log2 fold change [8]	log2 fold change [9]	log2 fold change [10]
TMEM181 (UniProt Q9P2C4)	inactive: 0.269	inactive: 0.098	inactive: 0.057	inactive: -0.006	inactive: -0.113	inactive: -0.013	inactive: 0.012	inactive: -0.023		
TMEM143 (UniProt Q96AN5)	inactive: 0.153		inactive: -0.071	inactive: -0.239		inactive: -0.041			inactive: -0.094	
TMEM263 (UniProt Q8WUH6)	inactive: -0.096	inactive: -0.038	inactive: -0.09	inactive: -0.043	active: -0.789	inactive: 0.065	inactive: -0.045	inactive: -0.208	active: -0.654	inactive: -0.042
TMEM69 (UniProt Q5SWH9)	inactive: -0.013	inactive: 0.038	inactive: -0.08	inactive: 0.047	inactive: 0.05	inactive: 0.164	inactive: -0.008	inactive: -0.115		inactive: -0.109
TMEM62 (UniProt Q0P6H9)	inactive: 0.02	inactive: -0.144	inactive: 0.036	inactive: 0.18	inactive: -0.064	inactive: 0.101	inactive: 0.115	inactive: 0.022	inactive: -0.016	inactive: 0.034
TMEM70 (UniProt Q9BUB7)	inactive: -0.041	inactive: -0.009	inactive: -0.016	inactive: 0.126	inactive: -0.118	inactive: 0.106	inactive: -0.039	inactive: 0.059	inactive: -0.157	inactive: -0.026
TMED8 (UniProt Q6PL24)	inactive: 0.266	inactive: -0.088	inactive: -0.027	inactive: 0.148	inactive: 0.038	inactive: -0.25	inactive: 0.024	inactive: -0.002		inactive: -0.226
TNFAIP3 (UniProt P21580)	inactive: -0.071	inactive: 0.058	inactive: -0.014	inactive: -0.055	inactive: 0.111	inactive: -0.057	inactive: 0.053	inactive: -0.07		inactive: 0.016
TMC6 (UniProt Q7Z403)	inactive: -0.196	inactive: -0.039	inactive: 0.06	inactive: 0	inactive: -0.13	inactive: -0.004	inactive: 0.065	inactive: -0.004		inactive: -0.109
TMEM267 (UniProt Q0VDI3)	inactive: -0.233	inactive: -0.164	inactive: 0.045		inactive: 0.144		inactive: 0.054	inactive: 0.162		
TMEM41A (UniProt Q96HV5)	inactive: -0.123		inactive: 0.024	inactive: -0.096	inactive: 0.088	inactive: 0.092	inactive: -0.106	inactive: -0.047	inactive: -0.158	inactive: 0.034
TMED4 (UniProt Q7Z7H5)	inactive: -0.005	inactive: 0.022	inactive: -0.095	inactive: -0.025	inactive: -0.008	inactive: 0.079	inactive: -0.017	inactive: 0.077	inactive: -0.077	inactive: 0.003
TMSB4X (UniProt P62328)	inactive: -1.26	inactive: -0.167	inactive: 0.389	inactive: -0.54	inactive: 0.032	inactive: 0.728	inactive: -0.432			inactive: 0.191
TMEM104 (UniProt Q8NE00)	inactive: 0.134	inactive: -0.01	inactive: -0.081	inactive: -0.012	inactive: 0.016	inactive: 0.164	inactive: -0.156	inactive: -0.341		inactive: 0.061
TMEM128 (UniProt Q5BJH2)	inactive: -0.065	inactive: -0.181	inactive: 0.035		inactive: 0.025		inactive: -0.068		inactive: 0.152	inactive: 0.076
TMEM50A (UniProt O95807)	inactive: -0.222	inactive: -0.261	inactive: 0.142		inactive: -0.264		inactive: -0.031			inactive: -0.035
TMX2 (UniProt Q9Y320)	inactive: 0	inactive: 0.025	inactive: -0.049	inactive: -0.043	inactive: -0.147	inactive: 0.047	inactive: -0.07	inactive: 0.041	inactive: -0.131	inactive: 0.018
TMEM126B (UniProt Q8IUX1)	inactive: -0.023	inactive: -0.041	inactive: -0.013	inactive: -0.238		inactive: 0.211		inactive: 0.02	inactive: -0.114	inactive: 0.083
TMEM223 (UniProt A0PJW6)	inactive: -0.042	inactive: 0.083	inactive: -0.112	inactive: -0.046	inactive: -0.147	inactive: 0.038	inactive: 0.018	inactive: -0.007	inactive: -0.109	inactive: -0.028
TMED5 (UniProt Q9Y3A6)	inactive: -0.031	inactive: -0.038	inactive: -0.067	inactive: 0.037	inactive: 0.029	inactive: -0.044	inactive: -0.018	inactive: 0.105	inactive: -0.037	inactive: 0.006
TMEM41B (UniProt Q5BJD5)	inactive: 0.009	inactive: 0	inactive: 0.108	inactive: -0.035	inactive: -0.282	inactive: 0.09	inactive: 0.058	inactive: -0.014		inactive: 0.058
TMED2 (UniProt Q15363)	inactive: -0.018	inactive: -0.019	inactive: 0.001	inactive: -0.033	inactive: -0.02	inactive: 0.063	inactive: 0.086	inactive: 0.028	inactive: -0.077	inactive: 0.013
TMEM184C (UniProt Q9NVA4)	inactive: -0.006	inactive: -0.11	inactive: -0.112	inactive: 0.059		inactive: 0.077		inactive: 0.162	inactive: 0.162	inactive: -0.043
TMEM101 (UniProt Q96IK0)	inactive: -0.075	inactive: -0.005	inactive: -0.145	inactive: -0.047	inactive: -0.083	inactive: -0.025	inactive: -0.001	inactive: 0.061		inactive: -0.051
TMX4 (UniProt Q9H1E5)	inactive: -0.028	inactive: 0.003	inactive: 0.041	inactive: -0.085	inactive: 0.063	inactive: 0.06	inactive: -0.033	inactive: 0.038	inactive: 0.021	inactive: 0.076
TNFAIP1 (UniProt Q13829)	inactive: -0.132	inactive: 0.116	inactive: -0.021	inactive: 0.001	inactive: -0.021	inactive: -0.067	inactive: 0.017			inactive: 0.075
TMLHE isoform 8 (UniProt Q9NVH6)	inactive: -0.19	inactive: -0.07	inactive: -0.003	inactive: 0	inactive: -0.004	inactive: 0.053	inactive: -0.072	inactive: 0.061	inactive: -0.061	inactive: -0.014
TM2D3 (UniProt Q9BRN9)	inactive: 0.024	inactive: 0.009	inactive: -0.021	inactive: -0.005	inactive: -0.137	inactive: 0.121	inactive: -0.063	inactive: 0.029	inactive: 0.034	inactive: -0.019
TMED10 (UniProt P49755)	inactive: -0.029	inactive: 0.012	inactive: -0.011	inactive: -0.037	inactive: -0.026	inactive: 0.034	inactive: -0.025	inactive: 0.038	inactive: -0.041	inactive: 0.04

Quoted from the listing:
For log2 fold change [9], TMED2 (UniProt Q15363) shows inactive: -0.077
For log2 fold change [6], TMEM101 (UniProt Q96IK0) shows inactive: -0.025
